Results as given in PubChem BioAssay AID540317 (National Center for Advancing Translational Sciences (NCATS), 2011).
Most of the hits are listed elsewhere, so they are rarer here than in the full data. Results filed as inconclusive are left out. Activity calls are given as the source filed them. Calls follow the shape of the dose curve; as a rule, active = well fitted inhibition curve with a large enough effect; inconclusive = small, poorly fitted or top-dose-only effect; inactive = no such curve, though single readings can be large or run the other way.

Protein sequences, listed by entry. Tags and fused reporters are not part of them.
UniProt P83916, whole entry, looked up: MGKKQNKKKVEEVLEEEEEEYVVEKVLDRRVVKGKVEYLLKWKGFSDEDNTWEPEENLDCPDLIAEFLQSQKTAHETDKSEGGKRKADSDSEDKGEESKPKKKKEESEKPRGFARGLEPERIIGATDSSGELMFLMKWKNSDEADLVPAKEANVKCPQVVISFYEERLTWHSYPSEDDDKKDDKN

Molecular target: Chromobox protein homolog 1 (Homo sapiens) (UniProt P83916)
Assay: HTS for Inhibitors of HP1-beta Chromodomain Interactions with Methylated Histone Tails; also: nearly all actives have a fitted effect of over 70% in size
Settings: AlphaScreen HP1-beta / biotin-H3K9me3 peptide binding; at 114 µM (top of the series)
Description: As our understanding of epigenetics expands, it is becoming clear that players in this field are potential targets for drug development. This area of epigenetic therapy has established applications for the treatment of cancer and neurological diseases. We have been involved in this field for a number of years and have performed high-throughput screens to identify the first small molecule inhibitors of protein methyltransferases. These methyltransferases target multiple substrates, and thus regulate many arms of an epigenetic pathway. The methylation of different substrates often generates docking sites for effector proteins that harbor binding domains (chromo, tudor, PHD, MBT and ANK repeats). It has been proposed that the binding sites generated for different proteins by these post-translational modifcations mediate downstream effects on chromatin. Consistent with this theory, di- and tri-methylation of histone H3K9 facilitates the binding of heterochromatin protein HP1. The HP1 protein harbors a chromodomain that is responsible for the methyl-dependent interaction between HP1 and lysine 9 of histone H3. […] Low-affinity protein-protein interactions (Kd in the single- to double-digit micromolar range) such as those discussed here have been very difficult to assay by traditional techniques such as fluorescence polarization or fluorescence resonance energy transfer. […]

Row | SMILES | activity change, negative = inhibition
1 | CCCCCCCCc1ccc(O)cc1 | inactive: 58.8%
2 | COc1cc2c(c(OC)c1OC)-c1ccc(SC)c(=O)cc1C(NC(C)=O)CC2 (configuration not stated) | inactive: 46.1%
